Measurements reported in PubChem BioAssay AID1259308 (NCATS, 2017)

Assay: 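Knock-downs that increase output of a recombinant reporter protein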 (primary screen)
Cells: human HEK293 embryonic kidney cells stably expressing firefly luciferase (HEK-CMV-Luc2-Hygro)
Reagents: single siRNA against human genes, 0.8 pmol siRNA per well
Time to read-out: 72 h
Measurement: 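Luciferase light (ONE-Glo) measured on one replicate plate set and viability (CellTiter-Glo) on the other, scaled to a negative control siRNA, with robust z-scores and luciferase per cell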
Reading the numbers: total luciferase, z-score and total luciferase, % of control: higher = more reporter protein produced; luciferase per cell, z-score: higher = more reporter output per viable cell; viable cells, % of control: higher = more viable cells
Hit rule: 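An siRNA counts as active if its total luciferase robust z-score exceeds 3; genes with two or more such siRNAs out of three were retested with fresh siRNAs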
Calls: active = raised luciferase; inactive = no rise
The whole screen tested about 59,000 reagents; below is an unselected part. Over the whole deposit, about 1,510 (2.6%) were called active. 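Calls use total luciferase alone and ignore viability, so some active siRNAs may act by altering cell number.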 Entries without a mark were called inactive. The numbers tell different reagents against one gene apart. Reagent sequences are not shown.

target gene	reagent	total luciferase, z-score	total luciferase, % of control	luciferase per cell, z-score	viable cells, % of control
TSLIG3A	1	0.25	86.9	-0.471	110
TSLIG3A	2	1.51	112	0.873	99.5
TSLIG3A	3	-1.24	57.2	-0.524	73.4
DGKB	1	-0.298	76	0.293	78.6
DGKB	2	-0.42	73.5	-1.07	109
DGKB	3	0.814	98.1	0.382	99.1
SMIM7	1	-0.745	67.1	-0.699	90.1
SMIM7	2	0.0943	83.8	-0.427	105
SMIM7	3	2.52	132	1.93	88.9

3 entries already listed, sorted by “total luciferase, % of control”, descending:
target gene	reagent	total luciferase, z-score	total luciferase, % of control	luciferase per cell, z-score	viable cells, % of control
TSLIG3A	2	1.51	112	0.873	99.5
TSLIG3A	1	0.25	86.9	-0.471	110
TSLIG3A	3	-1.24	57.2	-0.524	73.4

The results go on.
target gene	reagent	total luciferase, z-score	total luciferase, % of control	luciferase per cell, z-score	viable cells, % of control
SLC25A27	1	-1.13	59.5	-1.19	90.9
SLC25A27	2	1.06	103	0.597	98.3
SLC25A27	3	-0.215	77.6	0.299	80.2
NEK4	1	-1.76	46.9	-1.28	73.4
NEK4	2	0.686	95.5	0.714	88.4
NEK4	3	-1.04	61.1	-1.29	95.8
SLC1A6	1	0.573	93.3	0.483	91.8
SLC1A6	2	-0.348	75	-0.476	94.9
SLC1A6	3	-2.51	32	-3.07	80.3
NKX3-2	1	5.37 (active)	189	3.29	88.6
NKX3-2	2	3.82 (active)	158	2.28	96.9
NKX3-2	3	2.12	124	3.39	56.9
URM1	1	-0.671	68.5	-0.151	79.7
URM1	2	0.231	86.5	0.946	75.3
URM1	3	-0.863	64.7	-1.26	101
